Data as given in PubChem BioAssay AID504784 (Drosophila RNAi Screening Center, 2011).
The screen tested about 17,000 reagents; shown is a random part of those that have a named target and a result. 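Each column is one replicate's B-score; the combined score over replicates was not deposited, so single values may mislead.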 The numbers tell different reagents against one gene apart. Further read-outs or replicates are left out here.

Aim: 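Fly genes whose silencing alters how much lipid cells keep in droplets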 (primary screen)
Cell system: Drosophila Kc167 embryonic cells
Knock-down reagent: long dsRNA against Drosophila genes, about 250 ng dsRNA per well
Timing: 4 days
Treatment: cells fed 400 µM oleic acid bound to BSA
Read-out: 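Cells imaged and segmented; ratio of lipid droplet area to nuclear area, log-transformed, then normalised as a B-score over the screen; higher means more stored lipid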
Direction: droplet/nuclear area B-score: higher = more stored lipid (overstorage)

For Snr1 the deposit lists droplet/nuclear area B-score, replicate 1 = 2.48.
After knock-down of RagA-B, the record shows droplet/nuclear area B-score, replicate 1 = 0.0292.
CG31493 showed droplet/nuclear area B-score, replicate 1 = 0.42.
Depletion of CG10598 resulted in: droplet/nuclear area B-score, replicate 1 = 0.621.
With knock-down of CG11279, the record shows droplet/nuclear area B-score, replicate 1 = 0.104.
Against CG16863, the values are droplet/nuclear area B-score, replicate 1 = 0.19.
For boil the deposit lists droplet/nuclear area B-score, replicate 1 = 0.00419.
Knock-down of CG13029 resulted in: droplet/nuclear area B-score, replicate 1 = 0.637.
Depletion of CG9826 gave: droplet/nuclear area B-score, replicate 1 = -0.8.
Knock-down of CG7069 came out at: droplet/nuclear area B-score, replicate 1 = 0.157.
Knock-down of Faa came out at: droplet/nuclear area B-score, replicate 1 = -1.22.
CG13926 gave droplet/nuclear area B-score, replicate 1 = 2.21.
With knock-down of CG42709 the results were droplet/nuclear area B-score, replicate 1 = -1.22.
Silencing of Tehao resulted in: droplet/nuclear area B-score, replicate 1 = 0.987.
mol #1 showed droplet/nuclear area B-score, replicate 1 = -0.666.
With knock-down of mol #2, the record shows droplet/nuclear area B-score, replicate 1 = -0.553.
For mol #3, the entry reads droplet/nuclear area B-score, replicate 1 = -0.0587.
After knock-down of PIG-Wa the results were droplet/nuclear area B-score, replicate 1 = 0.819.
Against Ilp5 the deposit lists droplet/nuclear area B-score, replicate 1 = 0.247.
Silencing of ORMDL resulted in: droplet/nuclear area B-score, replicate 1 = 0.392.
Silencing of Ir93a #1 gave: droplet/nuclear area B-score, replicate 1 = -1.8.
Ir93a #2 scored droplet/nuclear area B-score, replicate 1 = -0.399.
Mitofilin gave droplet/nuclear area B-score, replicate 1 = -0.374.
After knock-down of sac the results were droplet/nuclear area B-score, replicate 1 = 0.241.
Silencing of CG14448 resulted in: droplet/nuclear area B-score, replicate 1 = 1.26.
After knock-down of CG13369 the results were droplet/nuclear area B-score, replicate 1 = 0.153.
After knock-down of klg #1 the results were droplet/nuclear area B-score, replicate 1 = -0.0353.
Silencing of klg #2 gave: droplet/nuclear area B-score, replicate 1 = 1.71.
Argk2 #1 scored droplet/nuclear area B-score, replicate 1 = 0.485.
Argk2 #2 showed droplet/nuclear area B-score, replicate 1 = -1.
Against Tnpo, the values are droplet/nuclear area B-score, replicate 1 = -5.33.
After knock-down of CG11570 the results were droplet/nuclear area B-score, replicate 1 = 0.153.
For bond, the values are droplet/nuclear area B-score, replicate 1 = 0.33.
Su(var)3-9 gave droplet/nuclear area B-score, replicate 1 = 0.825.
For Rab40, the entry reads droplet/nuclear area B-score, replicate 1 = -0.054.
For kto, the entry reads droplet/nuclear area B-score, replicate 1 = -1.13.
Against CG8788, the values are droplet/nuclear area B-score, replicate 1 = 0.653.
After knock-down of CG31815 the results were droplet/nuclear area B-score, replicate 1 = 0.113.
For kug the deposit lists droplet/nuclear area B-score, replicate 1 = 0.557.
For Dlc90F, the entry reads droplet/nuclear area B-score, replicate 1 = 0.492.
Silencing of CG13907 gave: droplet/nuclear area B-score, replicate 1 = 0.03.
With knock-down of CG12436 (retired record) #1, the record shows droplet/nuclear area B-score, replicate 1 = -0.647.
CG12436 (retired record) #2 scored droplet/nuclear area B-score, replicate 1 = 1.34.
After knock-down of Ppi1, the record shows droplet/nuclear area B-score, replicate 1 = 0.688.
For Golgin245 #1, the entry reads droplet/nuclear area B-score, replicate 1 = 0.0822.
After knock-down of Golgin245 #2 the results were droplet/nuclear area B-score, replicate 1 = -0.0761.
trn gave droplet/nuclear area B-score, replicate 1 = 0.154.
With knock-down of TfIIA-S-2 the results were droplet/nuclear area B-score, replicate 1 = 0.343.
Depletion of CG32762 gave: droplet/nuclear area B-score, replicate 1 = -0.297.
Against CG5235, the values are droplet/nuclear area B-score, replicate 1 = 0.237.
rhea scored droplet/nuclear area B-score, replicate 1 = -0.888.

4 entries already listed, ordered by “droplet/nuclear area B-score, replicate 1”, descending:
Ppi1: droplet/nuclear area B-score, replicate 1 = 0.688
trn: droplet/nuclear area B-score, replicate 1 = 0.154
Golgin245 #1: droplet/nuclear area B-score, replicate 1 = 0.0822
Golgin245 #2: droplet/nuclear area B-score, replicate 1 = -0.0761
